Publication PMC4024641

Chains of the proteins cited; added tags and fusions are not shown.
UniProt O74424: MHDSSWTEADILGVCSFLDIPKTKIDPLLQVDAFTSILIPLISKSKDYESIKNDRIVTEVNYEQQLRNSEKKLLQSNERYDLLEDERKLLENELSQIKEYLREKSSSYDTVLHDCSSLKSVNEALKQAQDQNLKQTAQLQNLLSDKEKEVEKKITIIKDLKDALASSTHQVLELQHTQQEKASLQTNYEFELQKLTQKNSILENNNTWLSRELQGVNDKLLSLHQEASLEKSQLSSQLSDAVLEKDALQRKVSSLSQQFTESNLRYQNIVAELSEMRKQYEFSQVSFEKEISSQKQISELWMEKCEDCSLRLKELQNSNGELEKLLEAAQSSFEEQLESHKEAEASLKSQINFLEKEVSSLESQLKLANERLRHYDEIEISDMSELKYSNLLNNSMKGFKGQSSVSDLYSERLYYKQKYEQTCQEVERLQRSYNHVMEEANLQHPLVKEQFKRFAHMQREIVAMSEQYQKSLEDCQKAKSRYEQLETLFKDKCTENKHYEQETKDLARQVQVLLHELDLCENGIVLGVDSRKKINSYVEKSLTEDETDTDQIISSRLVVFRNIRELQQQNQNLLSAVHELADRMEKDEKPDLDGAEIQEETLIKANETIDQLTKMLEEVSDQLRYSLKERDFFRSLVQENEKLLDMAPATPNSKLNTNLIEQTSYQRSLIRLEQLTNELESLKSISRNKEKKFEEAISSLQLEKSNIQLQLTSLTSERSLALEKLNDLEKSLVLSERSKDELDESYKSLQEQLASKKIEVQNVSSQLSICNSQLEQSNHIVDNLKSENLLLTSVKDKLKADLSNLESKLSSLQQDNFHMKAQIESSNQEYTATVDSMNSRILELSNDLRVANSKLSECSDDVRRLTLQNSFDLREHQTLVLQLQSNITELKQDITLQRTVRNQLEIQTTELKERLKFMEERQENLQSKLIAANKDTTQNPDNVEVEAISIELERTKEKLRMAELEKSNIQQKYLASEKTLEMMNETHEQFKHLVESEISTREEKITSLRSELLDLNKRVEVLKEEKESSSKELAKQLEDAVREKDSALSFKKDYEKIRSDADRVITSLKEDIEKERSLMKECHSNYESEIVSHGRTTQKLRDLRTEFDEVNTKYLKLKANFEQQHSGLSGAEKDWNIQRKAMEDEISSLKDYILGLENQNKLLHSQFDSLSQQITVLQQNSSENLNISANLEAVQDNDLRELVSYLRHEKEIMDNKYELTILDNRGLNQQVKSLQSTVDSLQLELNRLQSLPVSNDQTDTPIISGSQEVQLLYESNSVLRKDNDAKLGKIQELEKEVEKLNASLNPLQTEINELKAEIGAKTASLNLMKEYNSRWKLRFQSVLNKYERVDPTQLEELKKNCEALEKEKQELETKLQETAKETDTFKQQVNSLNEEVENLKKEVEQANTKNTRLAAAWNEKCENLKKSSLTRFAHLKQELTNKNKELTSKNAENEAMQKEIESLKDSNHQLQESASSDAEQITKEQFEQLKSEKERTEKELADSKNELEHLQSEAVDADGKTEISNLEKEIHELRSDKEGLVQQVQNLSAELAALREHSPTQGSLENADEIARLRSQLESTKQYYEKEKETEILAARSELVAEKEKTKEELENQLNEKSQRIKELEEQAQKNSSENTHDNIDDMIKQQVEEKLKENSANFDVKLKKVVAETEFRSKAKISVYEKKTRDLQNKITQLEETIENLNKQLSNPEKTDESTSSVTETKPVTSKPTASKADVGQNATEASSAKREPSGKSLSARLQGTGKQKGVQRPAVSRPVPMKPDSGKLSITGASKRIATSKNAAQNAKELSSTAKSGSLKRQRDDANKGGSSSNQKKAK

Experiments:
Assay in all cases: affinity purification with mass spectrometry; 3×FLAG- or 13×myc-tagged bait purified from S. pombe cell extract on α-FLAG (M2) or α-myc (9E10) antibody cross-linked to Protein G Dynabeads, 4°C for 3 h, IP buffer (20 mM HEPES pH 7.5, 100 mM NaCl, 5 mM MgCl2, 1 mM EDTA, 10% glycerol, 0.25% Triton X-100, 0.5 mM DTT); LC-MS/MS; Red1-3×FLAG also from iss10Δ, rmn1Δ and Mtl1 knockdown cells
Rmn1-13×myc (S. pombe) = molecular target: T1, Rmn1-13×myc (S. pombe) (UniProt Q9USP9)
T1 sequence: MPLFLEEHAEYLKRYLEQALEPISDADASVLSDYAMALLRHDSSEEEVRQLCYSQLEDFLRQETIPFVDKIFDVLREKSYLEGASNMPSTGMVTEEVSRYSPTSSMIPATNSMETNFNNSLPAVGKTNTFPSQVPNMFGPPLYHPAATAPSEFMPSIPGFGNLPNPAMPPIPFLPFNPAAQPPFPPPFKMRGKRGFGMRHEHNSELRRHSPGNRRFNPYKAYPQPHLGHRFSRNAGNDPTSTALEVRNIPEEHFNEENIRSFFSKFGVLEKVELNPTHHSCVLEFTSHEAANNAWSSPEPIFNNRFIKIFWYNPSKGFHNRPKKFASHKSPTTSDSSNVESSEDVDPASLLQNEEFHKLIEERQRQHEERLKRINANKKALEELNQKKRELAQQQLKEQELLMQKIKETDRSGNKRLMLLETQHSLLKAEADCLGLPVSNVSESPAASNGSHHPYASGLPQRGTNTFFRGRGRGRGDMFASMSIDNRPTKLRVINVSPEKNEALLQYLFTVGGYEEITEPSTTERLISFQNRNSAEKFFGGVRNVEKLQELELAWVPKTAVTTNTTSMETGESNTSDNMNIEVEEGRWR

[1] = molecular target: T2, Red1-3×FLAG (S. pombe), Q9UTR8; conditions: remark: other sources report otherwise
T2 chain: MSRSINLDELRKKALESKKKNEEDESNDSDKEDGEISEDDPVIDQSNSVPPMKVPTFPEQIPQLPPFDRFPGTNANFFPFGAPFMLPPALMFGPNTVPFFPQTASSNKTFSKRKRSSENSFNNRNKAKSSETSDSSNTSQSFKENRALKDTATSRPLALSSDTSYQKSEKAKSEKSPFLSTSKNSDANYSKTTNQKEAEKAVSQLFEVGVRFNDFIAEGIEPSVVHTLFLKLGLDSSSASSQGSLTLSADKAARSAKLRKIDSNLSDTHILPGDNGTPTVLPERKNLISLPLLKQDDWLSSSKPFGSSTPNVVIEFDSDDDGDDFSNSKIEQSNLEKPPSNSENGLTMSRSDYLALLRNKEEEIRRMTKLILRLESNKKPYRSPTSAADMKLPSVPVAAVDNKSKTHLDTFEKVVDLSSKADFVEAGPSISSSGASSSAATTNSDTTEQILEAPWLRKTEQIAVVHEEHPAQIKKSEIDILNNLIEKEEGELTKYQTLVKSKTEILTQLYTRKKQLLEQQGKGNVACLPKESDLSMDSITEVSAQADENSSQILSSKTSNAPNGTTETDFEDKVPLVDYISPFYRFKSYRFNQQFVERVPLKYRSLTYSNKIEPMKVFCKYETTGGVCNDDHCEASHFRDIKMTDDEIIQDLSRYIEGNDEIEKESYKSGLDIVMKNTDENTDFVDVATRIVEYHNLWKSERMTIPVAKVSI

[2] = molecular target: T3, Red5-3×FLAG (S. pombe), O74823; conditions: remark: other sources report otherwise
T3 chain: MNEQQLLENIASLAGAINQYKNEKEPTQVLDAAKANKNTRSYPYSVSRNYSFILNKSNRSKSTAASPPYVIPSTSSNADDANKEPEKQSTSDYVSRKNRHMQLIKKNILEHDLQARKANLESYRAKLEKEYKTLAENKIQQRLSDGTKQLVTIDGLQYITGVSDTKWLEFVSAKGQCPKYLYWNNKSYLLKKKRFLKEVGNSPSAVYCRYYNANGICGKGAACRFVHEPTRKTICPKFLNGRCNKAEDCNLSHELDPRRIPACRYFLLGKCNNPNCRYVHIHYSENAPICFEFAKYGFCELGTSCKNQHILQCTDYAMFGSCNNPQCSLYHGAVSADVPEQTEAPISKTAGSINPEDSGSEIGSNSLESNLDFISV

For Nup211 (from UniProt O74424 1-1837), the binding (Rmn1-13×myc (S. pombe)) was “binds”.

B1: Red5-3×FLAG, O74823 1-376 (protein)
chain: MNEQQLLENIASLAGAINQYKNEKEPTQVLDAAKANKNTRSYPYSVSRNYSFILNKSNRSKSTAASPPYVIPSTSSNADDANKEPEKQSTSDYVSRKNRHMQLIKKNILEHDLQARKANLESYRAKLEKEYKTLAENKIQQRLSDGTKQLVTIDGLQYITGVSDTKWLEFVSAKGQCPKYLYWNNKSYLLKKKRFLKEVGNSPSAVYCRYYNANGICGKGAACRFVHEPTRKTICPKFLNGRCNKAEDCNLSHELDPRRIPACRYFLLGKCNNPNCRYVHIHYSENAPICFEFAKYGFCELGTSCKNQHILQCTDYAMFGSCNNPQCSLYHGAVSADVPEQTEAPISKTAGSINPEDSGSEIGSNSLESNLDFISV
For B1, the binding [1] was “binds”.

B2: Mmi1, O74958 1-488 (protein)
chain: MSNTNFSTSRSSKSIPELPNLEALRSLWPPPSLNESGDTRSVWTTHTGEPVASSVLSTSGSNNFSSPLKRPAPESHDAPIGRRLMVDDPRLIKHGKYDFSRHCTDYGHSYEWPYFRSLRRESMLYHTSGSYPESQPPYSSYSTDAPHYYHAGSESSAYYDSRSRLHGIQPPPKRRTLSPPPRRLADPVVVGSSRYVEEEVYRRPPYTLASEVPSSASAYQAGYSSYPVRSSPQLSHEDTRHGIASSGSTRYPFVPANTRASHSPSLLEPYAHSLPSSVAPVGAYPEKSSYLLSNSSNDSASRKEKPKARASTPPPLNFSRASEHRNEKGERISMINPRVVLDENGISHRSRYFIMLCDNETAIAHAKKTSIWAVKKDSSKRISDAYKKASVYFIFVAQQTYNALGYAQVVSDLNSTELPFWSDSSHAGGVRIKWIKTCNLFSAEISEIVSHMDHGSEARDGMEMMYDEGSRLCTLINYAIMKRIGRDR
With B2 the binding [2] was “binds”.

B3: Red1-3×FLAG, Q9UTR8 1-712 (protein)
chain: MSRSINLDELRKKALESKKKNEEDESNDSDKEDGEISEDDPVIDQSNSVPPMKVPTFPEQIPQLPPFDRFPGTNANFFPFGAPFMLPPALMFGPNTVPFFPQTASSNKTFSKRKRSSENSFNNRNKAKSSETSDSSNTSQSFKENRALKDTATSRPLALSSDTSYQKSEKAKSEKSPFLSTSKNSDANYSKTTNQKEAEKAVSQLFEVGVRFNDFIAEGIEPSVVHTLFLKLGLDSSSASSQGSLTLSADKAARSAKLRKIDSNLSDTHILPGDNGTPTVLPERKNLISLPLLKQDDWLSSSKPFGSSTPNVVIEFDSDDDGDDFSNSKIEQSNLEKPPSNSENGLTMSRSDYLALLRNKEEEIRRMTKLILRLESNKKPYRSPTSAADMKLPSVPVAAVDNKSKTHLDTFEKVVDLSSKADFVEAGPSISSSGASSSAATTNSDTTEQILEAPWLRKTEQIAVVHEEHPAQIKKSEIDILNNLIEKEEGELTKYQTLVKSKTEILTQLYTRKKQLLEQQGKGNVACLPKESDLSMDSITEVSAQADENSSQILSSKTSNAPNGTTETDFEDKVPLVDYISPFYRFKSYRFNQQFVERVPLKYRSLTYSNKIEPMKVFCKYETTGGVCNDDHCEASHFRDIKMTDDEIIQDLSRYIEGNDEIEKESYKSGLDIVMKNTDENTDFVDVATRIVEYHNLWKSERMTIPVAKVSI
For B3, the binding [2] was “binds”.

Results are given in words; binding and its absence hold for the method and conditions named. Binding seen in cells or lysates may run through a third protein. Here binding means that the protein was enriched with, or labelled near, the bait; the list need not be complete. Sequences can lack the tags named with a protein.
